The list shows only some results of the screen, not a fair sample: it is rich in T/C values a quarter to a half above the control, in often repeated tests (any T/C) and in doses without a T/C. Further doses and runs are listed elsewhere. T/C gives the treated animals as a percentage of the vehicle group. Some entries give survivors of the animals treated and no T/C: the source files T/C as zero there, which appears to mark a toxic dose or a test without result, not a measured value. Some survivor counts are full or nearly so, which does not show that the dose was tolerated: survival well below the control is almost never listed, so the zero probably covers shortened survival too. Survivors were counted at the toxicity check, usually on the fifth day, unless a day is given; later deaths do not show. Schedules are NCI's codes, taken here to give the interval after Q, in days (D) or hours (H), and the number of doses after X. For survival time, the PubChem record calls one and a half times the control and up active, and a quarter to a half above the control has no call in these data; cut-offs in other NCI protocols can differ. Some entries hold several experiments; their values stand side by side, smallest first. Some T/C values are followed by the survivors on the day toxicity was checked, most often the fifth; without a count, all were alive then.
Test system: BDF1 mice, P388 leukemia ip, median survival T/C
Experiment: NCI In Vivo Anticancer Drug Screen. Data for tumor model P388 Leukemia (intraperitoneal) in B6D2F1 (BDF1) mice
Conditions: T/C endpoint: median survival time, higher T/C = longer survival
How it was run: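 Transplantable tumour in mice; compound vs vehicle dosing; survival scored; ratio of treated to control reported.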

[1] = dose: 200.0 mg/kg/injection, schedule: Q04DX003 (ip), vehicle: saline with Tween-80
[2] = dose: 400.0 mg/kg/injection, schedule: Q04DX003 (ip), vehicle: saline with Tween-80
[3] = dose: 100.0 mg/kg/injection, schedule: Q01DX009 (ip), vehicle: saline
[4] = dose: 50.0 mg/kg/injection, schedule: Q01DX009 (ip), vehicle: Klucel (hydroxypropylcellulose) (HPC)
[5] = dose: 100.0 mg/kg/injection, schedule: Q01DX009 (ip), vehicle: Klucel (hydroxypropylcellulose) (HPC)
[6] = dose: 400.0 mg/kg/injection, schedule: Q01DX009 (ip), vehicle: Klucel (hydroxypropylcellulose) (HPC)
[7] = dose: 400.0 mg/kg/injection, schedule: Q01DX001 (ip), vehicle: saline with Tween-80
[8] = dose: 200.0 mg/kg/injection, schedule: Q01DX009 (ip), vehicle: Klucel (hydroxypropylcellulose) (HPC)
[9] = dose: 150.0 mg/kg/injection, schedule: Q04DX003 (ip), vehicle: Klucel (hydroxypropylcellulose) (HPC)
[10] = dose: 225.0 mg/kg/injection, schedule: Q04DX003 (ip), vehicle: Klucel (hydroxypropylcellulose) (HPC)
[11] = dose: 335.0 mg/kg/injection, schedule: Q04DX003 (ip), vehicle: Klucel (hydroxypropylcellulose) (HPC)

Compound: CN(C)CCCNc1nc(NCCCN(C)C)c2nc(-c3ccccc3)c(-c3ccccc3)nc2n1
- survivor count (dose: 100.0 mg/kg/injection, schedule: Q01DX005 (ip), vehicle: saline with Tween-80): 2 of 5
- survivor count (dose: 200.0 mg/kg/injection, schedule: Q01DX005 (ip), vehicle: saline with Tween-80): 0 of 5

Compound: C=Cn1ccnc1C.C=Cn1ccnc1C.CC(=O)CC(C)=O.CC(=O)CC(C)=O.[Co]
- survivor count (dose: 100.0 mg/kg/injection, schedule: Q04DX003 (ip), vehicle: saline with Tween-80): 3 of 6
- survivor count (dose: 100.0 mg/kg/injection, schedule: Q04DX003 (ip), vehicle: saline): 2 of 6
- survivor count [1]: 0 of 6
- survivor count [2]: 0 of 6

Compound: CC(=O)O[C@H]1[C@H]2O[C@]23[C@@H]2CC[C@@H]4C[C@@H](OC(=O)CCC(=O)O)CC[C@]4(C)[C@H]2CC[C@]3(C)[C@H]1c1ccc(=O)oc1
- survivor count (dose: 1.0 mg/kg/injection, schedule: Q01DX009 (ip), vehicle: Klucel (hydroxypropylcellulose) (HPC)): 3 of 6

Compound: C/C(=C\Br)CO
- survivor count (dose: 400.0 mg/kg/injection, schedule: Q01DX009 (ip), vehicle: saline): 0 of 6

Compound: C=C1C(=O)OC2CC3(C)CC(O)C(OC(C)=O)C(=C)C3CC12 (stereo not given)
- T/C [3]: 133 % of control [5 of 6 alive]

Compound: c1ccc2c(NCCCCCCNc3c4ccccc4nc4ccccc34)c3ccccc3nc2c1
- survivor count (dose: 10.0 mg/kg/injection, schedule: Q01DX009 (ip), vehicle: lactic acid): 2 of 6
- survivor count (dose: 20.0 mg/kg/injection, schedule: Q01DX009 (ip), vehicle: lactic acid): 4 of 6

Compound: COC(=O)c1ccc(C(=O)O)[n+]([O-])c1
- survivor count [4]: 6 of 6
- survivor count [5]: 6 of 6
- survivor count (dose: 100.0 mg/kg/injection, schedule: Q04DX003 (ip), vehicle: Klucel (hydroxypropylcellulose) (HPC)): 6 of 6
- survivor count [6]: 6 of 6

Compound: CNC(=N)c1ccc(NC(=N)c2ccc(NC(=N)c3ccc(NC(=O)Nc4ccc(C#N)cc4)cc3)cc2)cc1
- T/C (dose: 6.0 mg/kg/injection, schedule: Q04DX003 (ip), vehicle: saline with Tween-80): 126 % of control
- T/C (dose: 9.0 mg/kg/injection, schedule: Q04DX003 (ip), vehicle: saline with Tween-80): 145 and 146 % of control
- T/C (dose: 10.5 mg/kg/injection, schedule: Q01DX009 (ip), vehicle: saline with Tween-80): 142 % of control
- T/C (dose: 22.0 mg/kg/injection, schedule: Q04DX003 (ip), vehicle: saline with Tween-80): 145 % of control
- survivor count (dose: 75.0 mg/kg/injection, schedule: Q01DX009 (ip), vehicle: saline with Tween-80): 6 of 6
- survivor count (dose: 112.0 mg/kg/injection, schedule: Q04DX003 (ip), vehicle: saline with Tween-80): 2 of 6
- survivor count (dose: 150.0 mg/kg/injection, schedule: Q01DX009 (ip), vehicle: saline with Tween-80): 0 of 6

Compound: O=C/C=C/c1cccc([N+](=O)[O-])c1
- T/C (dose: 50.0 mg/kg/injection, schedule: Q01DX009 (ip), vehicle: saline with Tween-80): 134 % of control
- T/C (dose: 100.0 mg/kg/injection, schedule: Q01DX009 (ip), vehicle: saline with Tween-80): 130 % of control
- T/C (dose: 200.0 mg/kg/injection, schedule: Q01DX009 (ip), vehicle: saline with Tween-80): 128 [5 of 6 alive] and 134 % of control
- survivor count (dose: 400.0 mg/kg/injection, schedule: Q01DX009 (ip), vehicle: saline with Tween-80): 3 of 6

Compound: CC1C=NNC1=O (stereo not given)
- T/C (dose: 200.0 mg/kg/injection, schedule: Q01DX001 (ip), vehicle: saline with Tween-80): 131 % of control
- T/C (dose: 265.0 mg/kg/injection, schedule: Q01DX009 (ip), vehicle: Klucel (hydroxypropylcellulose) (HPC)): 129 % of control
- T/C [7]: 127 % of control
- T/C [6]: 127 % of control

Compound: COc1cccc2c1C(=O)c1c(O)c3c(c(O)c1C2=O)CC(O)(/C(C)=N/NC(=O)CCCCCCC(=O)N/N=C(\C)C1(O)Cc2c(O)c4c(c(O)c2C(OC2CC(N)C(O)C(C)O2)C1)C(=O)c1c(OC)cccc1C4=O)CC3OC1CC(N)C(O)C(C)O1 (stereo not given)
- T/C (dose: 8.0 mg/kg/injection, schedule: Q01DX009 (ip), vehicle: water): 149 % of control
- survivor count (dose: 16.0 mg/kg/injection, schedule: Q01DX009 (ip), vehicle: water): 6 of 6
- survivor count (dose: 32.0 mg/kg/injection, schedule: Q01DX009 (ip), vehicle: water): 6 of 6

Compound: C[C@]12CCC(=O)C(O)=C1CC[C@@H]1[C@@H]2CC[C@@]2(C)[C@H]1CC[C@]2(C)O
- T/C (dose: 100.0 mg/kg/injection, schedule: Q01DX009 (ip), vehicle: saline sonified): 127 % of control

Compound: O=[N+]([O-])C1(Cl)CCCCC1
- survivor count [4]: 6 of 6
- survivor count [5]: 0 of 6
- survivor count [8]: 0 of 6

Compound: c1ccc(CCSc2ncnc3nc[nH]c23)cc1
- survivor count (dose: 250.0 mg/kg/injection, schedule: Q01DX010 (ip), vehicle: saline): 6 of 6

Compound: CN1CCC(C(c2ccccc2)c2ccccc2)C1 (stereo not given)
- survivor count [5]: 3 of 6
- survivor count [8]: 0 of 6

Compound: N/N=C1/CCN2CCCc3cccc1c32
- survivor count [1]: 5 of 6

Compound: CC(=O)OCC(=O)[C@@]1(O)CC[C@H]2[C@@H]3CCC4=CC(=O)C=C[C@]4(C)[C@H]3[C@@H](O)C[C@@]21C
- survivor count [3]: 6 of 6
- survivor count (dose: 200.0 mg/kg/injection, schedule: Q04DX003 (ip), vehicle: saline): 5 of 6
- survivor count (dose: 400.0 mg/kg/injection, schedule: Q04DX003 (ip), vehicle: saline): 4 of 6

Compound: CC(=O)O/C(C#N)=C1\CCCC\C1=C(\C#N)OC(C)=O
- survivor count (dose: 50.0 mg/kg/injection, schedule: Q01DX001 (ip), vehicle: saline with Tween-80): 2 of 6
- survivor count (dose: 100.0 mg/kg/injection, schedule: Q01DX001 (ip), vehicle: saline with Tween-80): 0 of 6

Compound: O=[N+]([O-])c1ccc(N2CCN(Cc3ccccc3)CC2)c2c1no[n+]2[O-]
- T/C (dose: 150.0 mg/kg/injection, schedule: Q04DX003 (ip), vehicle: saline with Tween-80): 131 % of control

Compound: CCn1cnc2c(=S)nc(N)[nH]c21
- survivor count [9]: 1 of 6
- survivor count [10]: 1 of 6
- survivor count [11]: 2 of 6

Compound: O=C(c1ccccc1)c1ccccc1C(=O)c1ccccc1
- survivor count [8]: 6 of 6
- survivor count [6]: 6 of 6

Compound: CCOC(=O)CC(C)(C)NCc1ccccc1
- survivor count [4]: 5 of 6

Compound: [O-][n+]1c(-c2ccccc2)cn2ccccc21
- survivor count [7]: 0 of 6

Compound: Nc1cc(Cl)c2[nH]cnc2n1
- T/C (dose: 100.0 mg/kg/injection, schedule: Q01DX005 (ip), vehicle: distilled water + Tween-80): 125 % of control
- T/C (dose: 200.0 mg/kg/injection, schedule: Q01DX005 (ip), vehicle: distilled water + Tween-80): 133 % of control [4 of 6 alive]
- survivor count (dose: 400.0 mg/kg/injection, schedule: Q01DX005 (ip), vehicle: distilled water + Tween-80): 2 of 6

Compound: CCCCCCCCCCCCCCCCS(=O)(=O)CCO
- survivor count [2]: 6 of 6

Compound: COc1ccc(C(SCC(N)C(=O)O)(c2ccccc2)c2ccc(OC)cc2)cc1 (stereo not given)
- T/C (dose: 4.6 mg/kg/injection, schedule: Q01DX009 (ip), vehicle: Klucel (hydroxypropylcellulose) (HPC)): 128 % of control
- T/C (dose: 16.0 mg/kg/injection, schedule: Q04DX003 (ip), vehicle: Klucel (hydroxypropylcellulose) (HPC)): 145 % of control
- survivor count [4]: 3 of 6
- survivor count [5]: 1 of 6
- survivor count [9]: 5 of 6
- survivor count [10]: 6 of 6
- survivor count [11]: 1 of 6
